According to publication PMC5924408:
These are yes or no findings as the source states them, for the method shown. Binding seen in cells or lysates may run through a third protein. Some entries that bind do so weakly or less than the wild type. Tags and fused reporters may be left off the sequences shown.

Chains of the proteins cited; added tags and fusions are not shown. Residues count along the entry.
UniProt Q9QUK6, residues 26-835: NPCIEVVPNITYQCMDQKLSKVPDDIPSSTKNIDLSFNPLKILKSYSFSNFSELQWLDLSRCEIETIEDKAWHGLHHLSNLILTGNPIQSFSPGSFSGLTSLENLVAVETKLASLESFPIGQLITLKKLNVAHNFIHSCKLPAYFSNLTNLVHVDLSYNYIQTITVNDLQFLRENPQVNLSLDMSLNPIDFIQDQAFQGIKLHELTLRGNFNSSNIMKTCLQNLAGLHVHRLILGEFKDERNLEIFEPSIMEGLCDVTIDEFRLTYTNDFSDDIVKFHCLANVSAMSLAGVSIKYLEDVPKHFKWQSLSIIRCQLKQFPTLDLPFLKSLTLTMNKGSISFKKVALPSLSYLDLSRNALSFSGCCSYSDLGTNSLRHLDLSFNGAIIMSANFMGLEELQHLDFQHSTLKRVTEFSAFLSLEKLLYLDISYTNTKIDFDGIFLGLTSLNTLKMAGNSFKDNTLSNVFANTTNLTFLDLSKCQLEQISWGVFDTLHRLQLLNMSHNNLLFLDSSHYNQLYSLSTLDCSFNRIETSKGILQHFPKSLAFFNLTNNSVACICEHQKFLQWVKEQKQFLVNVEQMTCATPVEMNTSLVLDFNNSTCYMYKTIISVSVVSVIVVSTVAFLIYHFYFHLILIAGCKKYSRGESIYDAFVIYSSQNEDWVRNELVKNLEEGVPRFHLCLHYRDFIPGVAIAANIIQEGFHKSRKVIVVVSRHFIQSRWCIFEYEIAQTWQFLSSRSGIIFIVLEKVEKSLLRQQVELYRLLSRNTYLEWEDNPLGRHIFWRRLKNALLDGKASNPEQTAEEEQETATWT

Target: T1, γ-aminobutyric acidA receptor (GABAAR) α2 subunit, expressed from the GABRA2^phGFP plasmid (UniProt P26048)
T1 sequence: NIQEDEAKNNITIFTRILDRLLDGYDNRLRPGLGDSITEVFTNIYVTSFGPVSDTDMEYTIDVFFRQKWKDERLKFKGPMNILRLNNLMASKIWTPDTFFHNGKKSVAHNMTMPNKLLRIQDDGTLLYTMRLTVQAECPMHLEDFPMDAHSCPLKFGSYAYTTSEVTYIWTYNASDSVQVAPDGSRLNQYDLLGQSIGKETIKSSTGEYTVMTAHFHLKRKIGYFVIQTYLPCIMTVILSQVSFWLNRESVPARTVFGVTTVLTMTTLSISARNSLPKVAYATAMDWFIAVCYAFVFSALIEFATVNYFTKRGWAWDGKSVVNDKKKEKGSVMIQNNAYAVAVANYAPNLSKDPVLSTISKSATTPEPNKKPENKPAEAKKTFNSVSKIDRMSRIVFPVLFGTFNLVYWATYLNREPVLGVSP
Test: co-IP; N2a cells transfected with α2, 24 h; cross-linked with 1 mM DSP (cleavable, membrane-permeable; 20 min on ice); extracted with Pierce IP Lysis Buffer; 250 µg lysate pre-cleared with normal IgG; IP with α2 or TLR4 antibody or normal IgG (4 µg) and Protein A/G Plus-Agarose, overnight at 4 °C; four washes; reciprocal immunoblot with α2 or TLR4 antibodies

binding: binds
Substance: Toll-like receptor 4 (TLR4), endogenous in N2a cells (from UniProt Q9QUK6 26-835)
